Data taken from PubChem BioAssay AID1296 (Columbia University Molecular Screening Center, 2008).
Among all 130,000 compounds or so, about 1,000 (0.77%) were called active. Inconclusive results, whose numbers are uncertain, are shown with a selection of clear calls.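 Rule for the calls: active = activation at 2 µM above a set limit, confirmed on inspection of the cell images; inconclusive = above the set limit but not confirmed on image inspection; inactive = the rest.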

experiment: activators of insulin promoter-driven GFP, primary screen, imaging, TRM-6 cells, eGFP reporter, cell count (AID 1296); settings: at 2 µM, active compounds read high, plate-scaled: unstimulated 0, stimulated control 100;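 note: share of cells whose green reporter signal exceeds an intensity cutoff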
Procedure, shortened: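 Test system: human fetal islet-derived TRM-6 cells with tamoxifen-inducible insulin promoter–eGFP reporter. Compound dosing: 2 µM final, single concentration. Incubation: tamoxifen pre-incubation 15 h overnight, then compound exposure 48 h at 37 °C. Signal: fixed-cell fluorescence microscopy, eGFP plus Hoechst.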

SMILES	activation
COc1ccc(C2/C(=C(\O)c3cc(C)ccc3C)C(=O)C(=O)N2CCN(C)C)cc1OC (stereo not given)	inconclusive: 408%
O=C(c1ccc(Cl)cc1)c1c[nH]c(C(=O)NNc2cccc(Cl)n2)c1	active: 431%
CC(C)CCSc1nnc(Cn2c(=O)sc3ccccc32)n1C	inactive: -12.5%
CCOC(=O)C1CCCc2c1[nH]c1c(C(=O)O)cccc21 (stereo not given)	inactive: 0%
CCn1c(C)nc2cc(C(=O)NNC(=S)NC(=O)c3ccccc3)ccc21	inactive: 6.67%
CN1CCN(C(=O)CSc2nc(-c3cccs3)cc(-c3cccs3)c2C#N)CC1	inconclusive: 322%
CNC(=O)CSc1nnnn1-c1cc(C)ccc1C	inactive: 0%
CCC(=O)N(Cc1cc2cc(OC)ccc2[nH]c1=O)c1ccc(C)cc1C	active: 236%
COc1cc2c(cc1NC(=O)CSc1cccc[n+]1[O-])oc1ccccc12	inactive: 0%
CC(=O)c1c(C)oc2c1C(=O)c1ccccc1C2=O	inactive: 3.57%
CCC(=O)N1CCc2cc(S(=O)(=O)CCC(=O)Nc3ccc(CC)cc3)ccc21	inconclusive: 142%
CCc1nc(NCc2ccccc2)c(C#N)c2c1CCCC2	inconclusive: 220%
O=C(Nc1c2c(nc3ccccc13)CCCC2)c1cccc([N+](=O)[O-])c1	active: 380%
ClCC1NCC(c2ccccc2Cl)c2c1[nH]c1ccccc21 (stereo not given)	active: 586%
Cc1ccc(-n2c(Cl)c(Cl)nc(Cl)c2=O)cc1	active: 233%
COc1ccccc1N1C(=O)C(Cl)=C(Nc2ccccc2O)C1=O	active: 379%
COc1ccc(CNC(=O)Cn2nnc(-c3ccc(NC(=O)C4CCCCC4)cc3)n2)cc1	inactive: 3.7%
Brc1ccccc1OCCOCCOc1cccc2cccnc12	inconclusive: 346%
O=C(O)/C=C/c1ccccc1Oc1ccc(Cl)cc1Cl	inconclusive: 173%
O=C(OCn1ncc(Cl)c(Cl)c1=O)c1ccccc1Cl	inconclusive: 179% [cytotoxic]
COc1cccc(OC)c1C(=O)N1CCN(Cc2ccccc2C)CC1	inactive: -7.14%
COc1cccc(C2CC(C(F)(F)F)n3ncc(C(=O)NC(C)(C)C)c3N2)c1 (stereo not given)	inconclusive: 82.9%
Cc1cnc(C(=O)Nc2cc(S(=O)(=O)N3CCOCC3)ccc2N2CCN(C)CC2)cn1	inactive: 9.68%
COC(=O)CN1C(=S)N(c2ccc(OC)cc2)C(=O)/C1=C/c1ccc(N2CCOCC2)cc1	inconclusive: 210%

SMILES	activation
Cc1ccc(CNC(=O)CN(C2CCCCC2)S(C)(=O)=O)cc1	inconclusive: 446%
CN(C)CCCCCN(C)Cc1cc2ccccc2o1	active: 319%
CC1(C)CC(=O)C=C(Nc2ccc(S(N)(=O)=O)cc2)C1	inconclusive: 407%
CCNC(=S)Nc1cccc(Cl)c1C	inconclusive: 233%
Cc1ccc(NC(=O)CSc2nnc(-c3ccncc3)n2C)cc1S(=O)(=O)N1CCOCC1	inactive: -7.69%
CCn1c(CNC(=O)c2ccc(OC)c(OC)c2)nnc1SCC(=O)c1ccc(OC)cc1	inconclusive: 433%
CC(c1ccccc1)N1C(=O)c2ccc(C(=O)NCc3ccco3)cc2C1=O (stereo not given)	active: 440%
O=C(COC(=O)CCC1CCCC1)Nc1ccc(Cl)cn1	inactive: 0%
Cc1ccc2cc(CN(Cc3ccco3)C(=O)NCc3ccccc3)c(=O)[nH]c2c1C	active: 160%
CC(=O)c1c(C)[nH]c(C(=O)NCc2ccccc2)c1C	inconclusive: 79.4%
COc1ccc(C(=O)N2CCOC2CNC(=O)C(=O)NCc2ccc(Cl)cc2)cc1 (stereo not given)	inconclusive: 178%
O=C(NCCc1ccccc1)c1ccc(-c2ccccc2C(F)(F)F)o1	inactive: 4.76%
Cc1ccc(-n2nnnc2SCC(=O)N2CCCCC2)cc1	inactive: 2.86%
Cc1ccc(-n2c(SCC(=O)Nc3cccc(S(N)(=O)=O)c3)nc3ccccc32)cc1	inactive: -6.49%
CN(C(=O)/C=C/c1ccc([N+](=O)[O-])s1)c1ccccc1	inconclusive: 219%
CCOc1ccc(C(C)NC(=O)Cc2ccccc2)cc1OCC (stereo not given)	inactive: 8.33%
Cc1noc(C)c1C(=O)Nc1sc2c(c1C(N)=O)CCC2	inconclusive: 546%
O=C(NCN1CCN(CCO)CC1)c1cnccn1	inactive: 6.67%
CCCOC(=O)c1[nH]c2c(c1C)C(=O)CC(c1cccs1)C2 (stereo not given)	inconclusive: 87.1%
CC(C)NC(=O)CCCc1c[nH]c2ccccc12	inactive: 8.33%
CC12CCC(C(=O)N3CCc4ccccc43)(CC1=O)C2(C)C (stereo not given)	active: 514%
CC1(C(=O)O)CCC(C(=O)NC2CCCCC2)C1(C)C (stereo not given)	inconclusive: 96.5%
COc1cccc(/C=C2\C(=O)C(=O)c3ccccc32)c1	active: 178%
O=C(NCC(c1cccs1)N1CCOCC1)c1cc(-c2ccc(F)cc2)nc2ccccc12 (stereo not given)	inconclusive: 233%

Exported comma-delimited: 27 of the compounds above
SMILES,activation
COc1ccc(C2/C(=C(\O)c3cc(C)ccc3C)C(=O)C(=O)N2CCN(C)C)cc1OC (stereo not given),inconclusive: 408%
CCOC(=O)C1CCCc2c1[nH]c1c(C(=O)O)cccc21 (stereo not given),inactive: 0%
CCn1c(C)nc2cc(C(=O)NNC(=S)NC(=O)c3ccccc3)ccc21,inactive: 6.67%
CCC(=O)N(Cc1cc2cc(OC)ccc2[nH]c1=O)c1ccc(C)cc1C,active: 236%
COc1cc2c(cc1NC(=O)CSc1cccc[n+]1[O-])oc1ccccc12,inactive: 0%
CCC(=O)N1CCc2cc(S(=O)(=O)CCC(=O)Nc3ccc(CC)cc3)ccc21,inconclusive: 142%
O=C(Nc1c2c(nc3ccccc13)CCCC2)c1cccc([N+](=O)[O-])c1,active: 380%
ClCC1NCC(c2ccccc2Cl)c2c1[nH]c1ccccc21 (stereo not given),active: 586%
Cc1ccc(-n2c(Cl)c(Cl)nc(Cl)c2=O)cc1,active: 233%
COc1ccccc1N1C(=O)C(Cl)=C(Nc2ccccc2O)C1=O,active: 379%
COc1ccc(CNC(=O)Cn2nnc(-c3ccc(NC(=O)C4CCCCC4)cc3)n2)cc1,inactive: 3.7%
Brc1ccccc1OCCOCCOc1cccc2cccnc12,inconclusive: 346%
O=C(O)/C=C/c1ccccc1Oc1ccc(Cl)cc1Cl,inconclusive: 173%
Cc1cnc(C(=O)Nc2cc(S(=O)(=O)N3CCOCC3)ccc2N2CCN(C)CC2)cn1,inactive: 9.68%
COC(=O)CN1C(=S)N(c2ccc(OC)cc2)C(=O)/C1=C/c1ccc(N2CCOCC2)cc1,inconclusive: 210%
Cc1ccc(CNC(=O)CN(C2CCCCC2)S(C)(=O)=O)cc1,inconclusive: 446%
CCNC(=S)Nc1cccc(Cl)c1C,inconclusive: 233%
CCn1c(CNC(=O)c2ccc(OC)c(OC)c2)nnc1SCC(=O)c1ccc(OC)cc1,inconclusive: 433%
CC(c1ccccc1)N1C(=O)c2ccc(C(=O)NCc3ccco3)cc2C1=O (stereo not given),active: 440%
Cc1ccc2cc(CN(Cc3ccco3)C(=O)NCc3ccccc3)c(=O)[nH]c2c1C,active: 160%
COc1ccc(C(=O)N2CCOC2CNC(=O)C(=O)NCc2ccc(Cl)cc2)cc1 (stereo not given),inconclusive: 178%
O=C(NCCc1ccccc1)c1ccc(-c2ccccc2C(F)(F)F)o1,inactive: 4.76%
Cc1ccc(-n2nnnc2SCC(=O)N2CCCCC2)cc1,inactive: 2.86%
O=C(NCN1CCN(CCO)CC1)c1cnccn1,inactive: 6.67%
CC1(C(=O)O)CCC(C(=O)NC2CCCCC2)C1(C)C (stereo not given),inconclusive: 96.5%
COc1cccc(/C=C2\C(=O)C(=O)c3ccccc32)c1,active: 178%
O=C(NCC(c1cccs1)N1CCOCC1)c1cc(-c2ccc(F)cc2)nc2ccccc12 (stereo not given),inconclusive: 233%

Carrying on.

SMILES	activation
O=C(CSc1nnc(Cc2ccccc2)n1Cc1ccccc1)NCc1ccco1	inconclusive: 555%
Cc1ccc2c(c1)c1c(n2CC(O)Cn2nc(C)c(Br)c2C)CCCC1 (stereo not given)	active: 83.3%
CC1(C)NC(=O)N(CCCCSc2ccc(Cl)cc2)C1=O	inconclusive: 500%
CC(=O)c1cnc2c(-c3ccc(Cl)cc3)cnn2c1C	active: 585%
C=CCNc1oc(-c2cccs2)nc1C#N	inactive: 7.04%
CC(C)Cc1c(O)nc(SCC(=O)Nc2ccc3c(c2)CCC3)[nH]c1=O	inconclusive: 456%
CN=C(Nc1ccc(Cl)cc1)c1cccc(C(F)(F)F)c1	inconclusive: 170%
CCOC(=O)c1cc2c(ccn2C)n1Cc1cc(C)ccc1C	inconclusive: 91.4%
O=C(CSc1nc2ccccc2[nH]1)N1CCN(S(=O)(=O)c2ccc(Cl)cc2)CC1	active: 96.9%
c1ccc(CCNc2ccnc3cc4ccccc4cc23)cc1	inconclusive: 238%
O=C(O)c1ccc2c(c1)C(=O)N(Cc1ccccc1)C2=O	inconclusive: 42.7%
COc1ccc(N=Cc2ccc[nH]2)cc1	inconclusive: 126%
C=CCOc1ccc(Cl)cc1C(=O)O	inconclusive: 422% [cytotoxic]
O=C(NCc1cccnc1)c1ccc(CN2CCc3ccccc3C2)cc1	inconclusive: 103%
COc1ccc(CCNc2nnc(C)c(=O)[nH]2)cc1OC	inconclusive: 421%
CCOc1ccc(Cl)cc1S(=O)(=O)n1cnc2ccccc21	inconclusive: 136%
CN(C)CCN1CCc2ccccc21	inconclusive: 109%
O=C(Cn1ncc(Cl)c(Cl)c1=O)N1CCN(Cc2ccccc2)CC1	inconclusive: 509% [cytotoxic]
CCCN1CCc2c(sc(NC(=S)NC(=O)c3ccccc3)c2C#N)C1	inconclusive: 623%
CCCNC(=O)c1nnsc1S(=O)(=O)c1ccc(Cl)cc1	inconclusive: 591%
N#CCC(=N)N1CCN(c2ccccc2)CC1	inconclusive: 144%
CC(C)C(NC(=O)c1ccccc1)c1nnc(SCC(=O)Nc2nccs2)n1C (stereo not given)	inconclusive: 94.3%
CNc1ccc(C2(O)C(=O)c3ccccc3C2=O)cc1	inconclusive: 202%
CSC1=C(C#N)C(C)CC(=O)N1 (stereo not given)	inconclusive: 356%

SMILES	activation
O=C(Nn1c(Cc2cccs2)nc2ccccc2c1=O)c1ccc(F)c(F)c1	active: 419%
COC(CNC(=O)c1ccc(N2CCCC2=O)cc1)OC	inconclusive: 427%
Cc1cc(NC(=O)c2ccc(S(=O)(=O)N(C)C)cc2)no1	inactive: 7.69%
Cc1cc(Cl)c(S(=O)(=O)N2CCN(c3ccc(F)cc3)CC2)cc1OCC(=O)NC1CCCCC1	inconclusive: 525%
CC1=C(OC(=O)C(C)(C)C)C(C)(C)C(c2ccccc2)OC1=O (stereo not given)	inactive: 5.26%
Cc1c(Cl)cccc1NCC(=O)NN=C1CCCC1	active: 337%
COc1ccc(-n2cc(C(=O)O)c3ccccc3c2=O)cc1	inconclusive: 75.9%
CCC(CC)C(=O)OCC(=O)Nc1cc(OC)c([N+](=O)[O-])cc1C	inactive: -63.6%
O=C(NCc1ccccc1)/C(=C/c1ccco1)NC(=O)c1ccco1	inconclusive: 254%
Cc1cccc(CSc2nc3c(cc2C#N)CCC3)c1	inconclusive: 69%
CCN(CC)CCNc1nc(-c2ccccc2)nnc1C(F)(F)F	inconclusive: 137% [cytotoxic]
Cc1ccc(-c2nc3ccccc3[nH]2)cc1NC(=S)NC(=O)c1ccccc1Br	inactive: 3.33%
C=CCn1c(Cc2ccc(OC)cc2)nnc1SCC(N)=O	inactive: -2.78%
Cn1c(=O)c(NCCc2ccccc2)c2c3c(cccc31)C(=O)c1ccccc1-2	active: 170% [may fluoresce]
CCOc1ccc(C(NC(=O)c2ccco2)c2ccc(OC)c(OC)c2)cc1 (stereo not given)	inconclusive: 443%
CCN=C1SC(CC(=O)Nc2ccccc2OCC)C(=O)N1CC (stereo not given)	inconclusive: 608%
O=c1c(Cl)c(Cl)cnn1Cc1nnc(-c2ccc(Cl)cc2)o1	inconclusive: 520% [cytotoxic]
Cc1cccc(NC(NC(=O)c2ccccn2)C(Cl)(Cl)Cl)c1 (stereo not given)	inconclusive: 264%
Cc1ccn(C(=O)c2cc3c(C)nn(-c4ccccc4)c3s2)n1	inactive: 2.63%
O=c1c(Cl)c(Cl)cnn1-c1ccccc1	inconclusive: 223% [cytotoxic]
CCN1CCS/C1=C/C=C/C1=[N+](CC)CCS1	active: 233%
CN(CC(=O)Nc1ccc(F)cc1)C(=O)CSc1nc2ncc(Cl)cc2[nH]1	inconclusive: 164%
O=C(CSc1oc(-c2ccc(F)cc2)nc1S(=O)(=O)c1ccc(F)cc1)NCC1CCCO1 (stereo not given)	inconclusive: 542%
